From the supplement of paper PMC11006884
This is a selection; strong and weak results do not stand in their true shares. This is a noisy data set.

Amino acid sequences for entries named in this document (tags omitted). A change or cut given only in a name is not applied to a line headed by its entry.
UniProt O75478: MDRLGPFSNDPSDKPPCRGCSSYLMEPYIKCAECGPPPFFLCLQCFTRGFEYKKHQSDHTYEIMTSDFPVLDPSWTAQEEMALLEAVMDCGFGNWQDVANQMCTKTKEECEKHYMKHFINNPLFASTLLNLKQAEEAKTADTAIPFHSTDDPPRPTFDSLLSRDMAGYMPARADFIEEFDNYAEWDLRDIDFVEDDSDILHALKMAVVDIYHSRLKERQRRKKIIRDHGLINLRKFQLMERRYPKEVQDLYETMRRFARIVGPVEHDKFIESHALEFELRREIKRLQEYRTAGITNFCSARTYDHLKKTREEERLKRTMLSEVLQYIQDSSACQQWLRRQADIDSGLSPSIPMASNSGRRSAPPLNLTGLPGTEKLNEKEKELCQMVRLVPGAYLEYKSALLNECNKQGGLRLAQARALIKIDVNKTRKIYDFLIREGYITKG
UniProt O76031, whole entry, looked up: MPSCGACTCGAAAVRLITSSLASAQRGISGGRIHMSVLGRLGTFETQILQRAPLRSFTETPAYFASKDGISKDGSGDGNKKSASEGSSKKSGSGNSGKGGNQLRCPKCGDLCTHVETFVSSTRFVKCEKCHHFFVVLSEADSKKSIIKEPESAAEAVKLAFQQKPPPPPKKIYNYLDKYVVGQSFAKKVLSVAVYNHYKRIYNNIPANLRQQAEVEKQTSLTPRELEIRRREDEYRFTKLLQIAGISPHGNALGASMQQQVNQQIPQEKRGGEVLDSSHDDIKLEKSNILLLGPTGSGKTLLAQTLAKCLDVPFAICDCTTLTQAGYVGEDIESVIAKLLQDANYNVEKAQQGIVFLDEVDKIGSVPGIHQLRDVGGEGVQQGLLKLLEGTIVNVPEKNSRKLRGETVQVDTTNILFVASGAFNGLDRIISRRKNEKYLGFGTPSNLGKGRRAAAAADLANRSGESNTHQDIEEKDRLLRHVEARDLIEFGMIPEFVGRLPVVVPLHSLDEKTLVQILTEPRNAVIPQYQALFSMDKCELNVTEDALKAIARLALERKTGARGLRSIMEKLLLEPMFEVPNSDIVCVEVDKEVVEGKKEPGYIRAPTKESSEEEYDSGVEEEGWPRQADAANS
UniProt O60353: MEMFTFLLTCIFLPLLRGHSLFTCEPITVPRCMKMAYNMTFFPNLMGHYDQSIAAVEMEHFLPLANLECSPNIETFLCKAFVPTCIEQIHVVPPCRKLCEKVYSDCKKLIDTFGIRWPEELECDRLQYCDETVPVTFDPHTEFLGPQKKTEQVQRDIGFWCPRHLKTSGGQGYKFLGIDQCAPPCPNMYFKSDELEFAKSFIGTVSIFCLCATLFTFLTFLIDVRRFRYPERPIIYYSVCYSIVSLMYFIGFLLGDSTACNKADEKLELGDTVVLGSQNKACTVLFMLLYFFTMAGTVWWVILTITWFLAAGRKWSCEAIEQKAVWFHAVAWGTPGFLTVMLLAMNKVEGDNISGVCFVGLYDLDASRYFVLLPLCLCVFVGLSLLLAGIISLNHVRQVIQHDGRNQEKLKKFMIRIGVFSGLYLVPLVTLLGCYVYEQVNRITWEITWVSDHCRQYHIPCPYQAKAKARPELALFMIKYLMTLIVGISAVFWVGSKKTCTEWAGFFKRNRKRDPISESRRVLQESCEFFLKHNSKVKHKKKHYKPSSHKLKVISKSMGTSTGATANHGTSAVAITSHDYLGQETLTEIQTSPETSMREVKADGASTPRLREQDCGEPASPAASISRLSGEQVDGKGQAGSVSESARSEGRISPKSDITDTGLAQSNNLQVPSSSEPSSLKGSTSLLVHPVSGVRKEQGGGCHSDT
UniProt O75643, whole entry, looked up: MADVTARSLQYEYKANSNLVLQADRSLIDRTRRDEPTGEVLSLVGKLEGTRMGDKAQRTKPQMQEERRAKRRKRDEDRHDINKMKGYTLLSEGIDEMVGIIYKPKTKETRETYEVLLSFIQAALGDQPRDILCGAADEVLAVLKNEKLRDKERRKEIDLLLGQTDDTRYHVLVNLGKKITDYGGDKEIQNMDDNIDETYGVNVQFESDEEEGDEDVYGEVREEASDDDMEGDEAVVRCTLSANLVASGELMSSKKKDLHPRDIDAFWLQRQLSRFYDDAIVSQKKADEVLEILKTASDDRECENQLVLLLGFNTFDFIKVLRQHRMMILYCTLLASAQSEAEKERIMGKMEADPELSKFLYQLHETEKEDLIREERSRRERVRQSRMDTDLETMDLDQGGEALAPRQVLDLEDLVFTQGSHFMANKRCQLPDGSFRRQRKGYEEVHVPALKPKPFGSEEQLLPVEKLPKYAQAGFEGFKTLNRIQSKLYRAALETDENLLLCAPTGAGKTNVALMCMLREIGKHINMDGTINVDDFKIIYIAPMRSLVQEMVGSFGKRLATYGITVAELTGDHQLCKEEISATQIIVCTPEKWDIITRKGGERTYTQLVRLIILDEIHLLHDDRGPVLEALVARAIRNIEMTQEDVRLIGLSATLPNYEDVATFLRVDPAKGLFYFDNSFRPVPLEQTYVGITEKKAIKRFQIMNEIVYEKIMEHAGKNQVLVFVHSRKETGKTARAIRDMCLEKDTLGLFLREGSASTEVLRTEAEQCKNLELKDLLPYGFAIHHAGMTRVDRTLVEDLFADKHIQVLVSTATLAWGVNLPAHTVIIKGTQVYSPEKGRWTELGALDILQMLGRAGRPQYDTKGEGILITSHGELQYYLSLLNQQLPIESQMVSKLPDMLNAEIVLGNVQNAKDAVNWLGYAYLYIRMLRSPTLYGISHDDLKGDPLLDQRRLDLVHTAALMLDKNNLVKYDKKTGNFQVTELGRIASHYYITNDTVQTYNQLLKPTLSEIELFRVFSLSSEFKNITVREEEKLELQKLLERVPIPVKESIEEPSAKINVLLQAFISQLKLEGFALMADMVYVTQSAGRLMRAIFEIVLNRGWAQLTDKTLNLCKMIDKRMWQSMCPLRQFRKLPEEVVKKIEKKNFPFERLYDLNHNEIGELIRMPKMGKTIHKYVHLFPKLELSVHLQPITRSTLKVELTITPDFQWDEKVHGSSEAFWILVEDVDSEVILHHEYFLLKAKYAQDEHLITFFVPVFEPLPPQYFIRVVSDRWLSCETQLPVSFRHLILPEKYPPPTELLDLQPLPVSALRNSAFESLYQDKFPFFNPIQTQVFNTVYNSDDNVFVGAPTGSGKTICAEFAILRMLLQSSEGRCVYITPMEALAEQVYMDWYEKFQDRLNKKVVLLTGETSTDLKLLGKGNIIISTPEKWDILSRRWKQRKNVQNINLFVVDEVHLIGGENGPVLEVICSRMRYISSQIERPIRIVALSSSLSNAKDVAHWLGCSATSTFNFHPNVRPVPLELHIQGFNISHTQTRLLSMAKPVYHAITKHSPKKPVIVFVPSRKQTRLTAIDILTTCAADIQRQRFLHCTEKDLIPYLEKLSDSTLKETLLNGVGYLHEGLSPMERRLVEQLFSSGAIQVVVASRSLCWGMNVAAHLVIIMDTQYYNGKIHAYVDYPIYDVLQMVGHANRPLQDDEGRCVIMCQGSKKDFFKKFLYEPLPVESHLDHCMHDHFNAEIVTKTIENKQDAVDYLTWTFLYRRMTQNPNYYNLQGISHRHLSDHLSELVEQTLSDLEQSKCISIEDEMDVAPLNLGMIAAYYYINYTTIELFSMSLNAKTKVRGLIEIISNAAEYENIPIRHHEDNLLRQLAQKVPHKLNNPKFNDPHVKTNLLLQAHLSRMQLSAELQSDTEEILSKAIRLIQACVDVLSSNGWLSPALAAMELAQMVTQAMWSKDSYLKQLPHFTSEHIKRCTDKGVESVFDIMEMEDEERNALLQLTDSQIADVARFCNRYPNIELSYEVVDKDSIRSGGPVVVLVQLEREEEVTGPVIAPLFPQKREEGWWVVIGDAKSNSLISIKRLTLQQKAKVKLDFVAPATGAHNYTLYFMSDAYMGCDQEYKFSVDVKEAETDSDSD
UniProt O60333: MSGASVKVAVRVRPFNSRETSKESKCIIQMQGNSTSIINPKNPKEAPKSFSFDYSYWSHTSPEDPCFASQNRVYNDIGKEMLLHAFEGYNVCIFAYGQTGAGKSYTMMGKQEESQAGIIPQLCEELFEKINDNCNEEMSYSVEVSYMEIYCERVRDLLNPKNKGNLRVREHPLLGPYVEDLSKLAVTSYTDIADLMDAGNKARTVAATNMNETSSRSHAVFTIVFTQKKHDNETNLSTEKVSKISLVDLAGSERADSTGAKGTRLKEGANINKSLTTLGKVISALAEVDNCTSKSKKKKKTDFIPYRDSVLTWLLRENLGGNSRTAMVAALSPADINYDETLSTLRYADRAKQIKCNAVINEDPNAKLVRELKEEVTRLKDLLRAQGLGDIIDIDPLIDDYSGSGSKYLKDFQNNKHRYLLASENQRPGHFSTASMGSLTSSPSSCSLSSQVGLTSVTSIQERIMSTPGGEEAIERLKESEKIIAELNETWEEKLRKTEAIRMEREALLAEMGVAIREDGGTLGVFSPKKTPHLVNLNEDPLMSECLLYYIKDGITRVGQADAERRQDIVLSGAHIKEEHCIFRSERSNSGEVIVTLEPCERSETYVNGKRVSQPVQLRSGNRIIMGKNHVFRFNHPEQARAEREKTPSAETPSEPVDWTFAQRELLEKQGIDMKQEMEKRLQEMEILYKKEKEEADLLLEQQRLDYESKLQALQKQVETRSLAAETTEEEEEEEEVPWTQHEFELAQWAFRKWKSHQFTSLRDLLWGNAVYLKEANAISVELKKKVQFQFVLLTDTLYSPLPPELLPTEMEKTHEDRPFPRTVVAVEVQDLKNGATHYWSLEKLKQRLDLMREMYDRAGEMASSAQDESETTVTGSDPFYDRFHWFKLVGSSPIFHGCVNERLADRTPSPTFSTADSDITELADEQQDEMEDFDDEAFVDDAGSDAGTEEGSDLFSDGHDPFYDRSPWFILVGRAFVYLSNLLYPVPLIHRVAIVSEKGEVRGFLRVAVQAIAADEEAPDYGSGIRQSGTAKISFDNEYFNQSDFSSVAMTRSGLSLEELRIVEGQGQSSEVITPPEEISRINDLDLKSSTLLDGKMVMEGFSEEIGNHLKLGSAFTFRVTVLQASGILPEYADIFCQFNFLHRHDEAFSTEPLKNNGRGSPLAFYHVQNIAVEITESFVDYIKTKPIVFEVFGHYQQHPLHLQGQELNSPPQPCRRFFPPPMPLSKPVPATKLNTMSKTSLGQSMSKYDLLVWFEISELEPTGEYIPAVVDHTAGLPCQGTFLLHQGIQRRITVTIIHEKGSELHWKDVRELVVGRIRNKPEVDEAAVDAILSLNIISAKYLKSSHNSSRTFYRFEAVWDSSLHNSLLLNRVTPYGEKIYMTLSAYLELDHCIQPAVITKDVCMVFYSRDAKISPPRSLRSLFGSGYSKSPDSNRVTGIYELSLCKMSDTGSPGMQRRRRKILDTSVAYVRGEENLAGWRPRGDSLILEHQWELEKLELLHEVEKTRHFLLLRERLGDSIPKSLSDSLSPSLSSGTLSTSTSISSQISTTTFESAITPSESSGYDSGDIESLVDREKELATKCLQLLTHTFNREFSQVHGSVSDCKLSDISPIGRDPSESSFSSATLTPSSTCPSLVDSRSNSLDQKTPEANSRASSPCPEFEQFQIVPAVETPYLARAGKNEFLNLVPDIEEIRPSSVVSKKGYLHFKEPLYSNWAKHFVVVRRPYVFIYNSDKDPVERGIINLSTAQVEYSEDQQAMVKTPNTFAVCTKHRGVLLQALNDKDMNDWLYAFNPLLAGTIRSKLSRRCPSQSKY
UniProt O75439: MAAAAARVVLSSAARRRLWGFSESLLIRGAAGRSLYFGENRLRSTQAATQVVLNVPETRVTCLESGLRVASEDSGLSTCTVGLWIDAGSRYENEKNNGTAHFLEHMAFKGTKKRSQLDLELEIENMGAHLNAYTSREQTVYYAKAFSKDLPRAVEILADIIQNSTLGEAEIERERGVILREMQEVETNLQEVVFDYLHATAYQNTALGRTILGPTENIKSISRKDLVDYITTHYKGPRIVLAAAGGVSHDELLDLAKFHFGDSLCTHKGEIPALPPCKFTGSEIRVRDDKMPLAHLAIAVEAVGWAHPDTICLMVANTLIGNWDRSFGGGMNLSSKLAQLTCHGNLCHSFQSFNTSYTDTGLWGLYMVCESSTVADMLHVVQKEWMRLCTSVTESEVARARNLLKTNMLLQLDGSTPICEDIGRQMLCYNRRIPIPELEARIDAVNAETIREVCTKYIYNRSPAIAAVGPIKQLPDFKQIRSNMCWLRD
UniProt O60232: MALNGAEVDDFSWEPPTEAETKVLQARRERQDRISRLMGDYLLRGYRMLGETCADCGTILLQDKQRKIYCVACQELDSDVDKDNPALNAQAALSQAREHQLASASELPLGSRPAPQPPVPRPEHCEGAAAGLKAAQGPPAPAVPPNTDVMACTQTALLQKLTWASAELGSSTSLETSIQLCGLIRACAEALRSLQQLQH

compound: COC(=O)/C=C/c1ccccc1 [methyl cinnamate]; assay: log2 ratio of iodoacetamide-alkyne labeling of the cysteine site, DMSO over compound (competition); higher = stronger covalent engagement of the cysteine by the compound, active = 1 or more; details: 500 µM; treatment time 1 h; system: HEK293T cell lysate
In short: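 After 1 h at ambient temperature with vehicle or electrophile (500 µM), HEK293T lysate (2 mg/mL) was labelled for 1 h with iodoacetamide alkyne and clicked to sCIP-TMT reagents. Pooled samples were trypsin-digested overnight at 37 °C, streptavidin-enriched, acid-eluted and analysed by Orbitrap Eclipse LC-MS/MS with FAIMS, then quantified in FragPipe over three replicates with duplicate channels. A cysteine's log2 competition ratio is its mean control-channel over mean compound-channel reporter intensity. Cysteines quantified in only one replicate were not included.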

log2 ratio of iodoacetamide-alkyne labeling, inactive:
TADA2A C20 (UniProt O75478) 0.0234
LRCH4 C571 (UniProt O75427) -0.308
DNAJC13 C2181 (UniProt O75165) 0.0385
XRCC3 C86 (UniProt O43542) -0.322
CLPX C586 (UniProt O76031) -0.177
FZD6 C702 (UniProt O60353) 0.226
AKAP8 C351 (UniProt O43823) 0.299
CLPX C538 (UniProt O76031) -0.123
UniProt O60610_C1227 -0.00241
TSC22D2 C158 (UniProt O75157) 0.141
VPS4B C240 (UniProt O75351) -0.00995
PSMD10 C107 (UniProt O75832) 0.229
GLRX3 C146 (UniProt O76003) -0.144
DKC1 C74 (UniProt O60832) 0.0913
FLNB C660 (UniProt O75369) -0.000467
AP1G1 C31 (UniProt O43747) 0.189
WDHD1 C304 (UniProt O75717) 0.172
DIAPH2 C484 (UniProt O60879) 0.0901
UniProt O43865_C106 0.366
RECQL5 C457 (UniProt O94762) 0.221
KPNA6 C208 (UniProt O60684) 0.0569
SNRNP200 C742 (UniProt O75643) 0.0125
NCOR1 C2322 (UniProt O75376) 0.415
AQR C28 (UniProt O60306) -0.00957
ROCK2 C330 (UniProt O75116) 0.252
DCTN3 C140 (UniProt O75935) 0.0548
RRP9 C296 (UniProt O43818) 0.109
KIF1B C66 (UniProt O60333) 0.144
UniProt O43776_C537 0.153
SURF6 C19 (UniProt O75683) 0.583
WDR1 C170 (UniProt O75083) 0.436
SF3B1 C1250 (UniProt O75533) -0.144
ZC3H11A C588 (UniProt O75152) 0.0193
ANKRD17 C1622 (UniProt O75179) 0.3
PMPCB C419 (UniProt O75439) 0.162
AKAP8 C631 (UniProt O43823) 0.0512
UniProt O60232_C152 0.394

Two records picked at random from those above:
log2 ratio of iodoacetamide-alkyne labeling, inactive:
UniProt O60232_C152 0.394
KPNA6 C208 (UniProt O60684) 0.0569
